# Laboratory results from patent publication US7220721B1 (Amylin Pharmaceuticals, Inc., priority 1997, dated 2007).
# Test: Fmoc solid-phase peptide synthesis; 4-(2′-4′-dimethoxyphenyl)-Fmoc aminomethyl phenoxy acetamide norleucine MBHA resin; HBTU (Fast Moc)
# Conditions: whole synthesis
substance,measurement,value
Ala Gly Glu Gly Thr Phe Thr Ser Asp Leu Ser Lys Gln Leu Glu Glu Glu Ala Val Arg Leu Phe Ile Glu Phe Leu Lys Asn-NH2,crude purity (method not given),about 75%
